Data source: PubChem BioAssay AID1259308 (NCATS, 2017)

- Aim: 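Genes whose loss raises luciferase production in HEK293 cells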 (primary screen)
- Cells: human HEK293 embryonic kidney cells stably expressing firefly luciferase (HEK-CMV-Luc2-Hygro)
- Reagent: single siRNA against human genes, 0.8 pmol siRNA per well
- Timing: 72 h
- Measurement: 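Reporter luminescence and viable-cell signal on separate replicate plates, given as percent of non-targeting control and median/MAD z-scores, plus per-cell luciferase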
- Scale: total luciferase, z-score and total luciferase, % of control: higher = more reporter protein produced; luciferase per cell, z-score: higher = more reporter output per viable cell; viable cells, % of control: higher = more viable cells
- Active means: 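Active when the median/MAD z-score for overall luciferase is greater than 3; a gene was taken forward for validation with new siRNAs if at least two of its three siRNAs passed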
- Meaning of the calls: active = raised luciferase; inactive = no rise
The deposit covers about 59,000 reagents; shown is a random part of them. About 1,510 of them (2.6%) were called active. 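Calls use total luciferase alone and ignore viability, so some active siRNAs may act by altering cell number.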 A number with no mark means an inactive call. Reagents against one gene are numbered here. No sequences are given here.

target gene | reagent no. | total luciferase, z-score | total luciferase, % of control | luciferase per cell, z-score | viable cells, % of control
TCEAL7 | 1 | 1.32 | 108 | 0.999 | 92.9
TCEAL7 | 2 | -0.164 | 78.6 | -0.093 | 90
TCEAL7 | 3 | 2.02 | 122 | 2.26 | 75.2
RPL28 | 1 | -0.985 | 62.3 | -1.32 | 98.5
RPL28 | 2 | -1.49 | 52.3 | 0.813 | 47.1
RPL28 | 3 | -2.78 | 26.5 | -2.74 | 61
TSR3 | 1 | -0.853 | 64.9 | 0.345 | 66.2
TSR3 | 2 | -0.09 | 80.1 | -0.578 | 104
TSR3 | 3 | -0.09 | 80.1 | 0.42 | 80.1
AAMDC | 1 | -0.47 | 72.5 | -0.226 | 86
AAMDC | 2 | -0.182 | 78.3 | -0.682 | 105
AAMDC | 3 | 0.185 | 85.6 | 0.118 | 92.7
MFGE8 | 1 | 1.33 | 108 | 0.669 | 101
MFGE8 | 2 | -0.525 | 71.4 | -0.712 | 96.3
MFGE8 | 3 | 0.229 | 86.4 | -0.0427 | 97.7

Targets listed so far whose gene name begins with A or a:
target gene | reagent no. | total luciferase, z-score | total luciferase, % of control | luciferase per cell, z-score | viable cells, % of control
AAMDC | 1 | -0.47 | 72.5 | -0.226 | 86
AAMDC | 2 | -0.182 | 78.3 | -0.682 | 105
AAMDC | 3 | 0.185 | 85.6 | 0.118 | 92.7

Next records:
target gene | reagent no. | total luciferase, z-score | total luciferase, % of control | luciferase per cell, z-score | viable cells, % of control
WDR44 | 1 | -0.124 | 79.4 | -0.125 | 91.7
WDR44 | 2 | 1.21 | 106 | 0.629 | 100
WDR44 | 3 | 0.411 | 90.1 | 0.308 | 92.8
UBAP1L | 1 | 2.57 | 133 | 2.41 | 78.8
UBAP1L | 2 | 1.46 | 111 | 1.29 | 88.4
UBAP1L | 3 | 1.06 | 103 | 1.2 | 83.9
TEX261 | 1 | 0.655 | 94.9 | 0.817 | 85.5
TEX261 | 2 | -1.08 | 60.3 | 0.213 | 63.7
TEX261 | 3 | -0.922 | 63.5 | -0.955 | 91.3
FLG | 1 | -1.21 | 57.9 | -1.35 | 92.4
FLG | 2 | -1.36 | 54.9 | -1.85 | 99.8
FLG | 3 | 0.723 | 96.3 | 0.024 | 107
BFAR | 1 | 0.93 | 100 | 1.35 | 78.6
BFAR | 2 | 2 | 122 | 1.12 | 101
BFAR | 3 | 0.623 | 94.3 | 0.226 | 99.3
ADAM18 | 1 | -1.08 | 60.5 | 0.0154 | 67.3
ADAM18 | 2 | 0.335 | 88.5 | 0.371 | 89.7
ADAM18 | 3 | -0.611 | 69.7 | -0.337 | 85.2
SGTA | 1 | 0.293 | 87.7 | 0.674 | 82.1
SGTA | 2 | 0.53 | 92.4 | 0.502 | 90.5
SGTA | 3 | 1.6 | 114 | 1.91 | 77
LRP5L | 1 | -0.601 | 69.9 | 0.899 | 61.7
LRP5L | 2 | -0.13 | 79.3 | -0.379 | 97.9
LRP5L | 3 | -0.15 | 78.9 | 0.169 | 84.3
